According to the supplement of paper PMC12595434, “Development of retinoid nuclear receptor pathway antagonists through targeting aldehyde dehydrogenase 1A3” (iScience, 2025):
This is one part of the list. The data scatter; read single values as rough.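 Tm was set to 64 °C where no melting was found, and many curves are irregular.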

Amino acid sequences for entries named in this document (tags omitted). A change or cut given only in a name is not applied to a line headed by its entry.
UniProt A1A4S6: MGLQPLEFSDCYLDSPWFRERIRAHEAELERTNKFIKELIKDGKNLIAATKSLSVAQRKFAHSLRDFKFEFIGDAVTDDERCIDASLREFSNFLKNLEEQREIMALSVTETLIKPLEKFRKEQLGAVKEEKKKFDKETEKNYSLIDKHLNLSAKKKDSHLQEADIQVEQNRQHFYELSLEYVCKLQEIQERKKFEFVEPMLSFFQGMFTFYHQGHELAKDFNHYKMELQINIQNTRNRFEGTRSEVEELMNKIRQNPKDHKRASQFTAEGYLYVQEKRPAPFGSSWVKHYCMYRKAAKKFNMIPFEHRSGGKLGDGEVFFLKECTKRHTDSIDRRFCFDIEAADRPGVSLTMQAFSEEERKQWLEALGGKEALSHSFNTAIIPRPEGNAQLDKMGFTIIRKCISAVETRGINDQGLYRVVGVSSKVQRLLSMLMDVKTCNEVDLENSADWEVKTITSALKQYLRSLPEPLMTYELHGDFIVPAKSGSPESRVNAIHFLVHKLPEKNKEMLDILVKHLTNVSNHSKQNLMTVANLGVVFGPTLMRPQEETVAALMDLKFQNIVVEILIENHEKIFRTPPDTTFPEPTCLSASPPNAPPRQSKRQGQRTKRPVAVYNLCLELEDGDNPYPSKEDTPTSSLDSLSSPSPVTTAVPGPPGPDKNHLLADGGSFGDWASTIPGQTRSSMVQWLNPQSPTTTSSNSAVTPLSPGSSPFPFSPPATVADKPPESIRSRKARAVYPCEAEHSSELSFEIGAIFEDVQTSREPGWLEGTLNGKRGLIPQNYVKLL
UniProt A2RRP1: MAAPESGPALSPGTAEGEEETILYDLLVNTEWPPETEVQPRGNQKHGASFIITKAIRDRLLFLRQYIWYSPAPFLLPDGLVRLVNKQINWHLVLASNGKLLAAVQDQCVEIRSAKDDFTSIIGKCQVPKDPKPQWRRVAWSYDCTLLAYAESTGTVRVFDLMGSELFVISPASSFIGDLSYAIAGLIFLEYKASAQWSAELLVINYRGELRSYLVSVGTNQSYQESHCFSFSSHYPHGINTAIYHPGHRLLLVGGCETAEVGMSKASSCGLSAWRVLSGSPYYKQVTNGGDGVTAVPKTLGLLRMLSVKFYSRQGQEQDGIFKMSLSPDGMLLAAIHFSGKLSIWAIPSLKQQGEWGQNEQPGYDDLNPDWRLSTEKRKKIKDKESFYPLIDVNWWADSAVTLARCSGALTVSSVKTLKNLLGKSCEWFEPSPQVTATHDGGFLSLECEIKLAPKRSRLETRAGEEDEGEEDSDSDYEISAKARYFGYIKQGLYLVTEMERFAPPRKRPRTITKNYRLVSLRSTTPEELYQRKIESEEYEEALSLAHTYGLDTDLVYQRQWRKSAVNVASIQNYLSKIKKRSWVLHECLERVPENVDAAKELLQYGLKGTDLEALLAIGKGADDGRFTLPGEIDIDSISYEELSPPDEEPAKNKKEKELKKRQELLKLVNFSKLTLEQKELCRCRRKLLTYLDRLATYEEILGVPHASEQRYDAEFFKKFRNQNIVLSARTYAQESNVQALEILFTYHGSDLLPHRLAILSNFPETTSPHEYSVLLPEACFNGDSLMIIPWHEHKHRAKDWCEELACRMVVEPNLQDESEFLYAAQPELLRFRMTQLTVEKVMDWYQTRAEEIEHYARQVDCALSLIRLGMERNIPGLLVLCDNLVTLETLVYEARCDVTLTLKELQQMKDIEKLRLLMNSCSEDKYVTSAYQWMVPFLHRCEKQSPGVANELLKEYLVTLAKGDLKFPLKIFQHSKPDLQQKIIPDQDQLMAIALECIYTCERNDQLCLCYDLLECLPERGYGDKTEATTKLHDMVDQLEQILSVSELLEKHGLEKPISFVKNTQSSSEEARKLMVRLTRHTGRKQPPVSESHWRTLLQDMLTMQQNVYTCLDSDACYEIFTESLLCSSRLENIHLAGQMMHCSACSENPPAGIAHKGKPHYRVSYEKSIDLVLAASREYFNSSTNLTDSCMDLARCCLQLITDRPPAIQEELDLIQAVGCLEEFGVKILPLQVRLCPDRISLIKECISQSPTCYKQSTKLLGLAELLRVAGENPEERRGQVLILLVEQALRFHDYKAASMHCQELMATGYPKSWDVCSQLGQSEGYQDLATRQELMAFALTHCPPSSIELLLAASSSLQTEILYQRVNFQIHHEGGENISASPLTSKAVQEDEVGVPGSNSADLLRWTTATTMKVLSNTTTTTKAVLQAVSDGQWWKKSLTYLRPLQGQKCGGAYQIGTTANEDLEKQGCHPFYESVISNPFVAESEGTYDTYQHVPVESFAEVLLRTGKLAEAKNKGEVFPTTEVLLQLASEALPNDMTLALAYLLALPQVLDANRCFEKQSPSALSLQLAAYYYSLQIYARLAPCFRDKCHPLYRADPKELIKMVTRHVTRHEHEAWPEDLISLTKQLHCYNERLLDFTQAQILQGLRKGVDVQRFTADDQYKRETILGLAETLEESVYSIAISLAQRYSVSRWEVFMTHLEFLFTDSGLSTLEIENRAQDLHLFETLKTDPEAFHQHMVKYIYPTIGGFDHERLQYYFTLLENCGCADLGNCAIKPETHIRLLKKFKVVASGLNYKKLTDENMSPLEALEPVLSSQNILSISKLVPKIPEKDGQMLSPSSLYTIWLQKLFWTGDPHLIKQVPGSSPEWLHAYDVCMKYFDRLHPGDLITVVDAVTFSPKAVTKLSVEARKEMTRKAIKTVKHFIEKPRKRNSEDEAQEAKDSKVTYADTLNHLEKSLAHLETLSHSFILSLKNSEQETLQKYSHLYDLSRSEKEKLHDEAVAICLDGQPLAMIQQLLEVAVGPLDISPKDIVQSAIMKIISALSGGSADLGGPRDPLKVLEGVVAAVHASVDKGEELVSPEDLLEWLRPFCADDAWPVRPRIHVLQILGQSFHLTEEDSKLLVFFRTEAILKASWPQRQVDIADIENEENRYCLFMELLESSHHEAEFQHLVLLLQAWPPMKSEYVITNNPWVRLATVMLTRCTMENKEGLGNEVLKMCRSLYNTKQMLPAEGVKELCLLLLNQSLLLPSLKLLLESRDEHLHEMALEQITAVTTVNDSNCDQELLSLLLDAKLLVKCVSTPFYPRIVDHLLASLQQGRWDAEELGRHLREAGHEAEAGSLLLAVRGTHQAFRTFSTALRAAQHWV
UniProt A0MZ66, whole entry: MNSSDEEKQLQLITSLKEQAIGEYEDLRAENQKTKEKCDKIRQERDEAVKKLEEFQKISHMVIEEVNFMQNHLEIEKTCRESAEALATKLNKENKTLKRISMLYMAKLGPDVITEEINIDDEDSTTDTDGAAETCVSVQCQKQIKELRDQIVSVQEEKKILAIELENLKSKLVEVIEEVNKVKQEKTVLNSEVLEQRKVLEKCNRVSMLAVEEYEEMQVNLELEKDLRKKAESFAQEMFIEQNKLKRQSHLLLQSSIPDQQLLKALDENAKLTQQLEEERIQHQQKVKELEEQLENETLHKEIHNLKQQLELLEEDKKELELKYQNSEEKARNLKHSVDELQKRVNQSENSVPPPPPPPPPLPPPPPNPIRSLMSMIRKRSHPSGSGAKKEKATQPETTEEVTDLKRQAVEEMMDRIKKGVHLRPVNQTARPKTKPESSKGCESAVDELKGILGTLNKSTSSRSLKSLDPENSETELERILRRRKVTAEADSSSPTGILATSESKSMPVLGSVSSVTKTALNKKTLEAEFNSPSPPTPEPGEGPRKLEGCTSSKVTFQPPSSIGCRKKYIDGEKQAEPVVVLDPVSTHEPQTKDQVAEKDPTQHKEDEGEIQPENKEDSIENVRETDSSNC
UniProt A2RTX5: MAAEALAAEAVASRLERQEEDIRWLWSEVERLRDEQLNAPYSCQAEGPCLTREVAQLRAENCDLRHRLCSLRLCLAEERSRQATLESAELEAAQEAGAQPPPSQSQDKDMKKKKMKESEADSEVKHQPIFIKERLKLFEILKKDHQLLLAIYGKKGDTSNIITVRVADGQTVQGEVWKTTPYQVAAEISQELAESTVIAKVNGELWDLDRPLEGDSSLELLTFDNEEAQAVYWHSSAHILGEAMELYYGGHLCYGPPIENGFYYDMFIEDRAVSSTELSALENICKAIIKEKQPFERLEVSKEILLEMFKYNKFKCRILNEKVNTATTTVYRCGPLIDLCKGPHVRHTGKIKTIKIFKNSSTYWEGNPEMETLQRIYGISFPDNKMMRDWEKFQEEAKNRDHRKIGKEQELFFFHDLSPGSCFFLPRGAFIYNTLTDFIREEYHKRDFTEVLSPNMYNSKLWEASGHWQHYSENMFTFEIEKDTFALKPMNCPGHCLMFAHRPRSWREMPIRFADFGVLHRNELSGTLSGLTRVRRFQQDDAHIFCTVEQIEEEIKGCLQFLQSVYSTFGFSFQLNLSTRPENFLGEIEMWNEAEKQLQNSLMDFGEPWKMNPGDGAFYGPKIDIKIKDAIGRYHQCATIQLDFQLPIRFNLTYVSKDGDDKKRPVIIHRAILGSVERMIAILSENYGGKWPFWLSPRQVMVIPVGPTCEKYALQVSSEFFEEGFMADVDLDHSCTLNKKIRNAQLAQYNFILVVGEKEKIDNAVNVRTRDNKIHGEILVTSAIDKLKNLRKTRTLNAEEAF
UniProt A0PJW6: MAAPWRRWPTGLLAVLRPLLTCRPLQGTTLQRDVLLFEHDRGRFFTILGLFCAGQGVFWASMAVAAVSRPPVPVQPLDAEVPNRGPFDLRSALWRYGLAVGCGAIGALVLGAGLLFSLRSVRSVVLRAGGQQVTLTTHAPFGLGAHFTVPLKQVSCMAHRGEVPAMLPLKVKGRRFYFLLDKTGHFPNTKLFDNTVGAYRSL
UniProt A0AV96: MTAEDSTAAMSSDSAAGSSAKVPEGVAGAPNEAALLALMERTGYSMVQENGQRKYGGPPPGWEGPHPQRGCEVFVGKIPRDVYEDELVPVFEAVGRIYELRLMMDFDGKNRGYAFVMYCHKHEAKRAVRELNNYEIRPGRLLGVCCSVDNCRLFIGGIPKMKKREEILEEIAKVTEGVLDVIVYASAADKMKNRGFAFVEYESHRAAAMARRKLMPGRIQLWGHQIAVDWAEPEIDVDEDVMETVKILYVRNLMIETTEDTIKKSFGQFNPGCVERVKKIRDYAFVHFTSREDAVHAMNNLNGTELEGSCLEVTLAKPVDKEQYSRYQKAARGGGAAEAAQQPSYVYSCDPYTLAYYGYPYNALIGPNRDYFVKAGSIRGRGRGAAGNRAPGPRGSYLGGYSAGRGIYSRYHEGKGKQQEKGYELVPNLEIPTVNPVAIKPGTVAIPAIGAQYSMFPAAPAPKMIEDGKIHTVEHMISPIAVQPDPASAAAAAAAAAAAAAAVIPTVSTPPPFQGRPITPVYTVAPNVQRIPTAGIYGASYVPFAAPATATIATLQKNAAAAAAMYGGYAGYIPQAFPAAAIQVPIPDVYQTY
UniProt A4D1P6: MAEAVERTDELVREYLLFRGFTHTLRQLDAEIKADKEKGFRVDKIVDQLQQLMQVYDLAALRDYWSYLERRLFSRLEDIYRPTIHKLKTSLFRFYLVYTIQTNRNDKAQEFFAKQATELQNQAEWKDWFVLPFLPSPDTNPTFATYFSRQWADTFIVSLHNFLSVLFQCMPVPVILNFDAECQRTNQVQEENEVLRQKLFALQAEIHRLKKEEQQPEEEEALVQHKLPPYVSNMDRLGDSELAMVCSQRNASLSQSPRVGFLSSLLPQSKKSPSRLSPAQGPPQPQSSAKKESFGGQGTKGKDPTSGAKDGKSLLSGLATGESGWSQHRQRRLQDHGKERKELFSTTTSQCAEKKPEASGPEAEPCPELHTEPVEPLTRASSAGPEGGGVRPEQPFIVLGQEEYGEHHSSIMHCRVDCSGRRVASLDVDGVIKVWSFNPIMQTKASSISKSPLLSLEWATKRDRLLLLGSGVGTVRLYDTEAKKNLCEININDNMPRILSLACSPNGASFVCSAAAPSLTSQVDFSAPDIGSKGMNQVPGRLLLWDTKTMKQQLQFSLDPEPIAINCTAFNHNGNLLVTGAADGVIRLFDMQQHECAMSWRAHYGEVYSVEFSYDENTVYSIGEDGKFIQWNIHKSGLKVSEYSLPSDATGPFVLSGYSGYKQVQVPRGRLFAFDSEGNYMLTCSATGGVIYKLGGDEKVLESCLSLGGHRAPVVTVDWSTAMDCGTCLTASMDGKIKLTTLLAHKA
UniProt A4D1U4: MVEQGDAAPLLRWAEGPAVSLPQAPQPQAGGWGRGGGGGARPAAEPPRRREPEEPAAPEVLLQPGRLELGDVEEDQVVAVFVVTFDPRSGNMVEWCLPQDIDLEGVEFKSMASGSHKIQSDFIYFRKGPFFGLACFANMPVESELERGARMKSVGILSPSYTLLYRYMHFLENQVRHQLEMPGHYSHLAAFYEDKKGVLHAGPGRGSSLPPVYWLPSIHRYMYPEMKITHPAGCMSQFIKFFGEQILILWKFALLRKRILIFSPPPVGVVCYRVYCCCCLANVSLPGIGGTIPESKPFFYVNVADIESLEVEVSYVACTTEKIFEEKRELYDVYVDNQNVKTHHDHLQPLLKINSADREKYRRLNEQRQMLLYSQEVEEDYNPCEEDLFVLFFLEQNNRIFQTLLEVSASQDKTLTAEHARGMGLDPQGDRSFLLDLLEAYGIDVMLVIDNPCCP

Tests used:
Test in all cases: melting temperature shift (DMSO Tm minus MBE1-treated Tm) in cellular thermal proteome profiling; higher = less thermal stabilization by MBE1 (negative = stabilized by MBE1)
[1] = target: ARHGAP10 (UniProt A1A4S6); details: A375
[2] = target: ESYT2 (UniProt A0FGR8); details: A375
[3] = target: GTPBP10 (UniProt A4D1E9); details: A375
[4] = target: ILVBL (UniProt A1L0T0); details: A375
[5] = target: NBAS (UniProt A2RRP1); details: A375
[6] = target: SBNO1 (UniProt A3KN83); details: A375
[7] = target: SH3PXD2B (UniProt A1X283); details: A375
[8] = target: SHTN1 (UniProt A0MZ66); details: A375
[9] = target: TARSL2 (UniProt A2RTX5); details: A375; MBE1 concentration: 100 nM
[10] = target: TMEM223 (UniProt A0PJW6); details: A375
[11] = target: TYW5 (UniProt A2RUC4); details: A375
[12] = target: UHRF1BP1L (UniProt A0JNW5); details: A375
[13] = target: UniProt A0A096LP01; details: A375
[14] = target: UniProt A0AV96; details: A375; MBE1 concentration: 100 nM
[15] = target: UniProt A0AVF1; details: A375
[16] = target: UniProt A0AVT1; details: A375
[17] = target: UniProt A0PK00; details: A375
[18] = target: UniProt A1L170; details: A375
[19] = target: UniProt A1L390; details: A375
[20] = target: UniProt A4D1P6; details: A375
[21] = target: UniProt A4D1U4; details: A375
[22] = target: UniProt A5A3E0; details: A375
[23] = target: VWA8 (UniProt A3KMH1); details: A375

## CCc1cnccc1C(=O)Nc1cc2c(cc1F)NC(=O)CC2
[1]; MBE1 concentration: 100 nM
  melting temperature shift: 0.58 °C
[1]; MBE1 concentration: 1 uM
  melting temperature shift: 0.281 °C
[2]; MBE1 concentration: 100 nM
  melting temperature shift: 1.06 °C
[2]; MBE1 concentration: 1 uM
  melting temperature shift: 0.0855 °C
[3]; MBE1 concentration: 100 nM
  melting temperature shift: -0.415 °C
[3]; MBE1 concentration: 1 uM
  melting temperature shift: 0.0128 °C
[4]; MBE1 concentration: 100 nM
  melting temperature shift: 0.543 °C
[4]; MBE1 concentration: 1 uM
  melting temperature shift: 0.421 °C
[5]; MBE1 concentration: 100 nM
  melting temperature shift: -1.13 °C
[5]; MBE1 concentration: 1 uM
  melting temperature shift: -0.725 °C
[6]; MBE1 concentration: 100 nM
  melting temperature shift: 0.702 °C
[6]; MBE1 concentration: 1 uM
  melting temperature shift: -0.0183 °C
[7]; MBE1 concentration: 100 nM
  melting temperature shift: -0.583 °C
[7]; MBE1 concentration: 1 uM
  melting temperature shift: -0.367 °C
[8]; MBE1 concentration: 100 nM
  melting temperature shift: 0.739 °C
[8]; MBE1 concentration: 1 uM
  melting temperature shift: -0.959 °C
[9]
  melting temperature shift: 0.543 °C
[10]; MBE1 concentration: 100 nM
  melting temperature shift: -0.731 °C
[10]; MBE1 concentration: 1 uM
  melting temperature shift: 0.429 °C
[11]; MBE1 concentration: 100 nM
  melting temperature shift: -0.154 °C
[11]; MBE1 concentration: 1 uM
  melting temperature shift: 0.0872 °C
[12]; MBE1 concentration: 100 nM
  melting temperature shift: -0.51 °C
[12]; MBE1 concentration: 1 uM
  melting temperature shift: 0.469 °C
[13]; MBE1 concentration: 100 nM
  melting temperature shift: -0.946 °C
[13]; MBE1 concentration: 1 uM
  melting temperature shift: -0.469 °C
[14]
  melting temperature shift: -0.932 °C
[15]; MBE1 concentration: 100 nM
  melting temperature shift: -1.34 °C
[15]; MBE1 concentration: 1 uM
  melting temperature shift: -0.456 °C
[16]; MBE1 concentration: 100 nM
  melting temperature shift: 0.757 °C
[16]; MBE1 concentration: 1 uM
  melting temperature shift: -0.00611 °C
[17]; MBE1 concentration: 100 nM
  melting temperature shift: -0.561 °C
[17]; MBE1 concentration: 1 uM
  melting temperature shift: 0.134 °C
[18]; MBE1 concentration: 100 nM
  melting temperature shift: 0.402 °C
[18]; MBE1 concentration: 1 uM
  melting temperature shift: 0.134 °C
[19]; MBE1 concentration: 100 nM
  melting temperature shift: -0.136 °C
[19]; MBE1 concentration: 1 uM
  melting temperature shift: -1.19 °C
[20]; MBE1 concentration: 100 nM
  melting temperature shift: -1.13 °C
[20]; MBE1 concentration: 1 uM
  melting temperature shift: -0.946 °C
[21]; MBE1 concentration: 100 nM
  melting temperature shift: -0.691 °C
[21]; MBE1 concentration: 1 uM
  melting temperature shift: 0.415 °C
[22]; MBE1 concentration: 100 nM
  melting temperature shift: -0.00611 °C
[22]; MBE1 concentration: 1 uM
  melting temperature shift: -5.79 °C
[23]; MBE1 concentration: 100 nM
  melting temperature shift: -0.621 °C
[23]; MBE1 concentration: 1 uM
  melting temperature shift: -1.27 °C
